{"source": "patent US8211606B2", "about": "“Coloring compound, yellow toner, sheet for heat-sensitive transfer recording, and ink” (Canon Kabushiki Kaisha, priority 2007, dated 2012)", "experiment": "Color tone evaluation of coloring compound applied on CLC color copy paper (chroma c* at L*=88)", "conditions": "c* value in L*=88; 0.04 mol/L solution in tetrahydrofuran/cyclohexanone applied on CLC color copy paper", "experimental": "A coloring compound was dissolved in tetrahydrofuran/cyclohexanone (=1/1 (v/v)) to prepare a 0.04 mol/L solution, which was then filtered with a filter (Φ0.2 μm). The prepared coloring compound solution was applied on CLC color copy paper (manufactured by Canon Inc.) by means of an applicator (0.1 mm). Subsequently, a solution in which part of the coloring compound solution was diluted 2-fold was prepared and applied in the same manner. This operation was repeated to prepare a color tone evaluation sample. The sample was then air-dried overnight and analyzed by using SpectroLino (manufactured by Gretag Machbeth). Optical density and chromaticity (L*, a*, b*) were determined on the basis of the L*a*b* color system. Chroma (c*) was calculated according to the following equation on the basis of measurements of the color characteristics. Chroma(c*)=√{square root over ({(a*)^2+(b*)^2})}{square root over ({(a*)^2+(b*)^2})}\nThe evaluation was performed as below.\nFor the same L* value, a larger c* value can be said to indicate a better color tone. The color tone was evaluated using the value of c* in L*=88.\nA: The c* value is 80 or more.\nB: The c* value is 75 or more and less than 80.\nC: The c* value is less than 75.\nA c* value of 75 or more in L*=88 was determined to indicate a good color tone.", "note": "Some compounds share one wording; it may come from a single statement.", "data": [{"molecule": "Cc1c(N=Nc2ccccc2[N+](=O)[O-])c(O)n(Cc2ccccc2)c(=O)c1C(N)=O", "note": "[(16)]", "values": [{"measurement": "Color Tone", "result": "A (The c* value is 80 or more.)"}]}, {"molecule": "CCCCC(CC)Cn1c(O)c(N=Nc2ccc(C(F)(F)F)cc2[N+](=O)[O-])c(C)c(C(=O)NCc2ccccc2)c1=O", "note": "(centres unmarked) [(18)]", "values": [{"measurement": "Color Tone", "result": "A (The c* value is 80 or more.)"}]}, {"molecule": "CCn1c(O)c(/N=N/c2ccccc2[N+](=O)[O-])c(C)c(C(N)=O)c1=O", "note": "[(2), reference compound]", "values": [{"measurement": "Color Tone", "result": "B (The c* value is 75 or more and less than 80.)"}]}, {"molecule": "CCn1c(O)c(N=Nc2ccc(C(F)(F)F)cc2[N+](=O)[O-])c(-c2ccccc2)c(C(=O)NC(C)(C)C)c1=O", "note": "[(13)]", "values": [{"measurement": "Color Tone", "result": "A (The c* value is 80 or more.)"}]}, {"molecule": "CCCCC(CC)Cn1c(O)c(N=Nc2cc(F)c(F)cc2[N+](=O)[O-])c(C)c(C(N)=O)c1=O", "note": "(centres unmarked) [(7)]", "values": [{"measurement": "Color Tone", "result": "B (The c* value is 75 or more and less than 80.)"}]}, {"molecule": "CCCCC(CC)Cn1c(O)c(N=Nc2c(Br)cc(C(F)(F)F)cc2[N+](=O)[O-])c(C)c(C(N)=O)c1=O", "note": "(centres unmarked) [(10)]", "values": [{"measurement": "Color Tone", "result": "A (The c* value is 80 or more.)"}]}, {"molecule": "CCCCC(CC)Cn1c(O)c(/N=N/c2ccc(C(F)(F)F)cc2[N+](=O)[O-])c(C)c(C(=O)NC(C)(C)C)c1=O", "note": "(centres unmarked) [Compound (5)]", "values": [{"measurement": "Color Tone", "result": "A (The c* value is 80 or more.)"}]}, {"molecule": "CCCCC(CC)Cn1c(O)c(N=Nc2ccc(C#N)cc2[N+](=O)[O-])c(C)c(C(N)=O)c1=O", "note": "(centres unmarked) [(11)]", "values": [{"measurement": "Color Tone", "result": "A (The c* value is 80 or more.)"}]}, {"molecule": "CCCCC(CC)Cn1c(O)c(/N=N/c2ccccc2[N+](=O)[O-])c(C)c(C#N)c1=O", "note": "(centres unmarked) [Comparative Compound (1), reference compound]", "values": [{"measurement": "Color Tone", "result": "C (The c* value is less than 75.)"}]}, {"molecule": "Cc1c(N=Nc2ccccc2[N+](=O)[O-])c(O)n(-c2ccccc2)c(=O)c1C(N)=O", "note": "[(15)]", "values": [{"measurement": "Color Tone", "result": "A (The c* value is 80 or more.)"}]}, {"molecule": "CCCCC(CC)Cn1c(O)c(/N=N/c2ccccc2[N+](=O)[O-])c(C)c(C(N)=O)c1=O", "note": "(centres unmarked) [Compound (4)]", "values": [{"measurement": "Color Tone", "result": "A (The c* value is 80 or more.)"}]}, {"molecule": "CCCCC(CC)Cn1c(O)c(N=Nc2c([N+](=O)[O-])cc(F)c(F)c2F)c(C)c(C(N)=O)c1=O", "note": "(centres unmarked) [(8)]", "values": [{"measurement": "Color Tone", "result": "B (The c* value is 75 or more and less than 80.)"}]}, {"molecule": "CCCCC(C)(CC)NC(=O)c1c(C)c(N=Nc2ccc(C(F)(F)F)cc2[N+](=O)[O-])c(O)[nH]c1=O", "note": "(centres unmarked) [(14)]", "values": [{"measurement": "Color Tone", "result": "A (The c* value is 80 or more.)"}]}, {"molecule": "CCCCC(CC)Cn1c(O)c(N=Nc2ccccc2[N+](=O)[O-])c(C)c(C(=O)NC2CCCC2)c1=O", "note": "(centres unmarked) [(17)]", "values": [{"measurement": "Color Tone", "result": "A (The c* value is 80 or more.)"}]}, {"molecule": "CCCCC(CC)Cn1c(O)c(N=Nc2ccc(C(F)(F)F)cc2[N+](=O)[O-])c(C)c(C(N)=O)c1=O", "note": "(centres unmarked) [(12)]", "values": [{"measurement": "Color Tone", "result": "A (The c* value is 80 or more.)"}]}, {"molecule": "CCCCC(CC)Cn1c(O)c(/N=N/c2ccc(F)cc2[N+](=O)[O-])c(C)c(C(N)=O)c1=O", "note": "(centres unmarked) [Compound (6)]", "values": [{"measurement": "Color Tone", "result": "B (The c* value is 75 or more and less than 80.)"}]}, {"molecule": "CCCCC(CC)Cn1c(O)c(N=Nc2c([N+](=O)[O-])cc(C(F)(F)F)cc2[N+](=O)[O-])c(C)c(C(N)=O)c1=O", "note": "(centres unmarked) [(9)]", "values": [{"measurement": "Color Tone", "result": "A (The c* value is 80 or more.)"}]}]}
